Reference: PubChem BioAssay AID504764 (Drosophila RNAi Screening Center, 2011)

- Purpose: 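Genome-wide screen for regulators of Notch-driven gene expression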 (primary screen)
- Cells: Drosophila Kc167 cells
- Knock-down reagent: long dsRNA against Drosophila genes
- Time to read-out: about 5 days (4 days dsRNA, then 24 h after transfection)
- Treatment: transfection of constitutively active membrane-tethered Notch lacking the extracellular domain, read 24 h later
- Measurement: 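Light from a Notch-responsive E(spl)m3 luciferase reporter under active Notch, with control-promoter and no-Notch reporter wells to normalise; raw counts from paired wells a and b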
- Scale: induced reporter light, run 1, well a and induced reporter light, run 1, well b: higher = more light from the Notch target reporter with active Notch; control promoter light, run 1, well a and control promoter light, run 1, well b: higher = more light from the viral control promoter (cell number, transfection, viability); uninduced reporter light, run 1, well a: higher = more light from the Notch target reporter without active Notch
- Rule for the call: 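Wells with low control signal or poorly matching duplicates excluded; duplicates averaged; per source plate, z beyond ±2 for induced/control log2 ratio or beyond ±1.8 for induced/uninduced marks a hit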
- Meaning of the calls: active = modifier hit (raised or lowered Notch signal); inactive = not a hit
In all, the deposit lists about 22,000 reagents; shown is a random part of those that have a named target and a result. Over the whole deposit, 403 (1.9%) are marked active. 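Unnormalised raw counts per well; ratio z-scores behind the hit calls and whether each hit raises or lowers signal are not deposited.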 Entries without a mark were called inactive. A plus sign joins genes that one reagent is predicted to hit. Not given: the amount of reagent.

gene knocked down | DRSC id | induced reporter light, run 1, well a | induced reporter light, run 1, well b | control promoter light, run 1, well a | control promoter light, run 1, well b | uninduced reporter light, run 1, well a
Asator | DRSC17136 | 1.16e5 | 1.01e5 | 1.72e5 | 1.81e5 | 8835
path | DRSC10361 | 1.84e5 | 1.21e5 | 1.86e5 | 1.67e5 | 8950
slmo + CG34179 | DRSC03143 | 53905 | 68265 | 55020 | 57365 | 4935
Vps50 | DRSC06910 | 96420 | 85530 | 1.51e5 | 1.81e5 | 8055
CG9981 | DRSC20225 | 63745 | 64270 | 77775 | 80555 | 7170
Klp59D | DRSC04118 | 2.08e5 | 1.65e5 | 1.59e5 | 1.23e5 | 11660
CG3515 | DRSC00609 | 1.23e5 | 1.10e5 | 1.17e5 | 66510 | 8905
AANATL2 | DRSC03227 | 89055 | 66090 | 91775 | 87065 | 5565
CG5381 | DRSC02852 | 1.33e5 | 1.62e5 | 1.03e5 | 92380 | 20000
mod(mdg4) | DRSC13474 | 53375 | 46865 | 71115 | 56575 | 7530
mod(mdg4) | DRSC13475 | 70605 | 68065 | 85635 | 73015 | 11655
mod(mdg4) | DRSC13478 | 94485 | 90445 | 1.04e5 | 90805 | 10645
mod(mdg4) | DRSC13479 | 82610 | 77500 | 1.10e5 | 97340 | 9195
mod(mdg4) | DRSC15042 | 1.83e5 | 1.74e5 | 2.16e5 | 2.17e5 | 13705
mod(mdg4) | DRSC17000 | 4890 | 4245 | 4860 | 5090 | 290
CG7387 | DRSC10833 | 1.19e5 | 1.40e5 | 89030 | 60740 | 12778
ImpL2 | DRSC08666 | 1.66e5 | 1.47e5 | 1.18e5 | 54440 | 12410
CG17778 | DRSC18504 | 1.59e5 | 1.41e5 | 3.04e5 | 3.45e5 | 11350
CG3544 | DRSC00613 | 2.00e5 | 2.19e5 | 2.25e5 | 2.44e5 | 18655
CG18666 | DRSC02694 | 1.14e5 | 1.35e5 | 67615 | 94395 | 13900

Limited to “control promoter light, run 1, well a” (3 entries from above):
ImpL2 [DRSC08666]: 1.18e5
CG17778 [DRSC18504]: 3.04e5
CG3544 [DRSC00613]: 2.25e5
